Data taken from paper PMC8076051.
Results are given in words; binding and its absence hold for the method and conditions named. Binding seen in cells or lysates may run through a third protein. Some entries that bind do so weakly or less than the wild type.

The chains behind the UniProt entries cited, without tags or fusion partners.
UniProt P56693: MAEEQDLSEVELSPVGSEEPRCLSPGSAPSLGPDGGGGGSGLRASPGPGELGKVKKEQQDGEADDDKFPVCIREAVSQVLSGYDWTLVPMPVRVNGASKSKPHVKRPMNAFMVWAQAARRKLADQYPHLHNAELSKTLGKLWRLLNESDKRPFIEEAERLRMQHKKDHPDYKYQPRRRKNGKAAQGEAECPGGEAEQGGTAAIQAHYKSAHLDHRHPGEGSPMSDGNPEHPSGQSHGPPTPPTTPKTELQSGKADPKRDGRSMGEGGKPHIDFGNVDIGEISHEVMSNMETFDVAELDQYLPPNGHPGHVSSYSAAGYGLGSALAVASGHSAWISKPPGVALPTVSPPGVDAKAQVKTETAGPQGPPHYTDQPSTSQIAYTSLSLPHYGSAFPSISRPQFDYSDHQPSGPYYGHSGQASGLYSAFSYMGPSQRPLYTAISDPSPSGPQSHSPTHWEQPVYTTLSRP
UniProt P35222: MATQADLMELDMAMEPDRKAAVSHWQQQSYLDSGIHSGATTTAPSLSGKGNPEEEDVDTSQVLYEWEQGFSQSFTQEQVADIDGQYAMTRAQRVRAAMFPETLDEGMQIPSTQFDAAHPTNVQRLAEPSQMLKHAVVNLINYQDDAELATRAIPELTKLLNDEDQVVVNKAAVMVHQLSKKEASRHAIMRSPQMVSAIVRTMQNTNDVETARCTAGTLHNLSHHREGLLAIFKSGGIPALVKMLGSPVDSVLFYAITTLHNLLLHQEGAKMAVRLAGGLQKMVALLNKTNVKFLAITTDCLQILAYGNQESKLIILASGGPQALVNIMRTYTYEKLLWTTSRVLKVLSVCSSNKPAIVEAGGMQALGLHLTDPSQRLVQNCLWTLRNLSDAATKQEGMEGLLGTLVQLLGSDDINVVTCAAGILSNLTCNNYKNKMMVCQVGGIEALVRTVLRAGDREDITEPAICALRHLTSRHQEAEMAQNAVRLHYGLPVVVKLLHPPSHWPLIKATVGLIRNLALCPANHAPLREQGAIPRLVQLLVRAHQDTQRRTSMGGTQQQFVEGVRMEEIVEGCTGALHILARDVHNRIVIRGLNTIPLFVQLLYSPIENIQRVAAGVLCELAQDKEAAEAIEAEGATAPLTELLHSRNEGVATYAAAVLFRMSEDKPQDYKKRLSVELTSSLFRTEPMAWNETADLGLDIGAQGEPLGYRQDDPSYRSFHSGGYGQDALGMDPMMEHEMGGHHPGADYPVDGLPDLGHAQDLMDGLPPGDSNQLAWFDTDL

Assays:
HA-tagged SOX10 = HA-tagged SOX10 (UniProt P56693); test: co-IP; flag-β-catenin and HA-SOX10 overexpressed in different ratios in HEK293T/17; lysate in IP buffer (50 mM Tris pH 8.0, 150 mM NaCl, 1 mM EDTA, 1% Triton X100, with Benzonase and 20 µM MG-132); anti-HA on Protein G Dynabeads, 2 h at 4 °C; western blot for β-catenin
[1] = target: recombinant SOX10 protein (UniProt P56693); test: cross-linking; M010817 whole cell extract mixed with recombinant SOX10 at ratios 1/1, 1/5 and 1/10 after dialysis against PBS; cross-linked with DSS d0/d12 for 3 h at room temperature; SDS-PAGE, in-gel trypsin digestion, nLC Orbitrap MS (CovalX); only the target purified

| Substance | binding (HA-tagged SOX10) | binding [1] |
| --- | --- | --- |
| flag-tagged β-catenin (from UniProt P35222 1-781) | binds | – |
| β-catenin (from UniProt P35222 1-781) | – | binds |
